Where a name gives a salt, the structure may show the parent alone. At least one structure is not confirmed: it was looked up by name or label, or the drawing left a doubt.
Tests used:
[1] = tested on: bacterial strains that express KPC β-lactamases; assay: Synergy MIC / standard BLI potentiation MIC assay, strains expressing KPC β-lactamases; type: cell-based; details: for at least one KPC strain and/or a better spectrum of activity against KPC strains than Avibactam; in the presence of a β-lactam
Method: (§1) Unless otherwise indicated, the activity of the BLI compounds can be described by the MIC value obtained from a Synergy MIC assay or a BLI potentiation assay (e.g as described herein), both of which are run in the presence of a β-lactam.
(§2) The experimental protocol was performed according to Clinical and Laboratory Standards Institute (CLSI) guidelines with modifications as described below (CLSI guidelines can be derived from the CLSI document M07-A9 published in January 2012: “Methods for Dilution Antimicrobial Susceptibility Tests for Bacteria That Grow Aerobically; Approved Standard-Ninth Edition”).
(§3) To prepare for MIC testing, frozen glycerol stocks of clinical isolates (Klebsiella pneumoniae, Eschericia coli, Enterobacter spp, Citrobacter spp, or Pseudomonas aeruginosa) were used to streak for isolated colonies on rich, non-selective, tryptic soy agar containing 5% sheep's blood (TSAB). […]
(§4) Plates were incubated for 18-20 hours at 37° C. with aeration (200 rpm). Following incubation, growth was confirmed visually placing plates over a viewing apparatus (stand with a mirror underneath) and then OD600 was measured using a SpectraMax 340PC384 plate reader (Molecular Devices, Sunnyvale, Calif.). Growth was defined as turbidity that could be detected with the naked eye or achieving minimum OD600 of 0.1. […]

[2] = tested on: bacterial strains that express the class D cephalosporinase OXA-15; assay: Synergy MIC / standard BLI potentiation MIC assay, strains expressing OXA-15;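 further: more active means a lower MIC or sMIC than Avibactam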; type: cell-based, E. coli; details: in the presence of a β-lactam; comparator Avibactam (CCC)
Method: as §1, §2, §3, §4

## C[n+]1ccc(-c2nnc([C@@H]3CC[C@@H]4CN3C(=O)N4OS(=O)(=O)O)o2)cc1 [Compound 782, (2S,5R)-2-(5-(1-methylpyridin-1-ium-4-yl)-1,3,4-oxadiazol-2-yl)-7-oxo-1,6-diazabicyclo[3.2.1]octan-6-yl sulfate]
[1]
  activity against bacterial strains that express KPC β-lactamase compared with Avibactam: more active than Avibactam
[2]
  activity against bacterial strains that express OXA-15 β-lactamase compared with Avibactam: more active than Avibactam

## C[n+]1ccc(-c2nnc([C@@H]3CC[C@@H]4CN3C(=O)N4OS(=O)(=O)[O-])s2)cc1 [Compound 786, (2S,5R)-2-(5-(1-methylpyridin-1-ium-4-yl)-1,3,4-thiadiazol-2-yl)-7-oxo-1,6-diazabicyclo[3.2.1]octan-6-yl sulfate]
[1]
  activity against bacterial strains that express KPC β-lactamase compared with Avibactam: more active than Avibactam

— patent publication US8940897B2, “1,3,4-oxadiazole and 1,3,4-thiadiazole β-lactamase inhibitors” (priority 2012, dated 2015)
